{"source": "patent US10246455B2", "about": "“Histone deacetylase inhibitors” (Taipei Medical University, priority 2014, dated 2019)", "tested_on": "PC3 prostate cancer cells", "assay": "Three dimensional cell growth inhibitory assay (cellular spheres, MTT, microscopy): PC3", "assay_type": "cell-based, human", "procedure": "For the three dimensional assay, cells in the logarithmic phase were cultured in 50% Matrigel-containing complete medium in 96-well plates at 37° C. with 5% CO2 for five days incubation, and treated with appropriate concentrations of test compounds for three generative times. Images of spheroids were taken under a microscope, and spheroid cell survival was determined by MTT assays.\nThe cells (in the 2D culture) and the cellular spheres (in the 3D culture) were treated with test compounds for 72 hours, and then subjected to the MTT colorimetric assay. Each value represents the mean of three independent experiments. Cellular spheres formed in semi-solid and drug effect on cellular spheres were examined using phase-contrast light microscopy.\nMore specifically, cellular spheres formed in semi-solid and drug effect on cellular spheres were examined using phase-contrast light microscopy. 3D structures of cells were analyzed using 4× magnification, 10× magnification, and 20× magnification.", "key": {"[1]": {"details": "Table 4, ratio of 3D to 2D culture value"}, "[2]": {"details": "Table 6, ratio of 3D to 2D culture IC50"}}, "data": [{"molecule": "COc1cccc2c1C(=O)c1c(O)c3c(c(O)c1C2=O)C[C@@](O)(C(=O)CO)C[C@@H]3O[C@H]1C[C@H](N)[C@H](O)[C@H](C)O1", "note": "[Adriamycin]", "values": [{"measurement": "Resistance (3D/2D)", "setting": "[1]", "value": 10.3}, {"measurement": "Resistance (3D/2D)", "setting": "[2]", "value": 10.3}]}, {"molecule": "O=C(CCCCCCC(=O)Nc1ccccc1)NO", "note": "[SAHA, reference compound]", "values": [{"measurement": "Resistance (3D/2D)", "setting": "[1]", "value": 1.69}, {"measurement": "Resistance (3D/2D)", "setting": "[2]", "value": 1.69}]}, {"molecule": "O=C(/C=C/c1cccc(S(=O)(=O)n2ccc3cccnc32)c1)NO", "note": "[Compound 7, (E)-3-(3-(1H-Pyrrolo[2,3-b]pyridin-1-ylsulfonyl)phenyl)-N-hydroxyacrylamide]", "values": [{"measurement": "Resistance (3D/2D)", "setting": "[1]", "value": 2.13}]}, {"molecule": "COc1ccc(S(=O)(=O)N2CCc3cc(/C=C/C(=O)NO)cnc32)cc1", "note": "[Compound 5b, (E)-N-hydroxy-3-(1-(4-methoxyphenylsulfonyl)-2,3-dihydro-1H-pyrrolo[2,3-b]pyridin-5-yl)acrylamide]", "values": [{"measurement": "Resistance (3D/2D)", "setting": "[2]", "value": 2.41}]}, {"molecule": "CC(=O)O[C@H]1C(=O)[C@@]2(C)[C@H]([C@H](OC(=O)c3ccccc3)[C@]3(O)C[C@H](OC(=O)[C@H](O)[C@@H](NC(=O)c4ccccc4)c4ccccc4)C(C)=C1C3(C)C)[C@]1(OC(C)=O)CO[C@@H]1C[C@@H]2O", "note": "[Paclitaxel]", "values": [{"measurement": "Resistance (3D/2D)", "setting": "[1]", "value": "29,250"}, {"measurement": "Resistance (3D/2D)", "setting": "[2]", "value": 29250}]}, {"molecule": "CC[C@]1(O)C[C@H]2CN(CCc3c([nH]c4ccccc34)[C@@](C(=O)OC)(c3cc4c(cc3OC)N(C=O)[C@H]3[C@@](O)(C(=O)OC)[C@H](OC(C)=O)[C@]5(CC)C=CCN6CC[C@]43[C@@H]65)C2)C1", "note": "[Vincristine]", "values": [{"measurement": "Resistance (3D/2D)", "setting": "[1]", "value": 3.33}, {"measurement": "Resistance (3D/2D)", "setting": "[2]", "value": 3.33}]}]}
